# Source: PubChem BioAssay AID588497 (NMMLSC, 2011)
# Out of some 360,000 compounds screened, about 780 (0.22%) were called active. Listed are the inconclusive results; actives and inactives stand elsewhere. Cut-off read from the data, not from the text of the source: active = inhibition above about 35% (passing the limit was not always enough); inconclusive = no clear call, values can overlap the other calls.
# Tested on: Botulinum neurotoxin type F light chain protease (Clostridium botulinum)
# Assay: BoNT/F light chain protease inhibitors, primary screen, biochemical, flow cytometry, MLPCN library (AID 588497); note: plate controls were buffer without enzyme for full effect and enzyme alone for no effect
# Details: Multiplex microsphere protease cleavage assay, at 10 µM, active compounds read high
row,Compound,inhibition
1,CCCCCOc1ccc(NP(C)(=O)Oc2ccc(Cl)cc2Cl)cc1 (stereo not given),inconclusive: 21.1%
2,O=[N+]([O-])c1cc([N+](=O)[O-])c(OC2CCCCC2O)c([N+](=O)[O-])c1 (stereo not given),inconclusive: -18.9%
3,O=C(OCCCN1CCCC1)C(O)(c1ccccc1)C1CCCCC1 (stereo not given),inconclusive: -45.7%
4,O=[N+]([O-])c1cc([N+](=O)[O-])c(Nc2nnnn2CCO)c([N+](=O)[O-])c1,inconclusive: 17.2%
5,O=[N+]([O-])c1cc([N+](=O)[O-])c(-c2cnn(-c3ccccc3)c2)c([N+](=O)[O-])c1,inconclusive: -22.4%
